Taken from: PubChem BioAssay AID1053208 (Peter MacCallum Cancer Centre, 2014)

Test: 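Synthetic lethal interactions between gene loss and doxorubicin in osteosarcoma cells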 (primary screen)
Cell system: mouse osteosarcoma cells, early-passage culture from an engineered mouse model of fibroblastic bone tumour
Reagents: siRNA pool against mouse genes, 40 nM
Duration: about 120 h (48 h before drug, then 72 h with drug)
Conditions: doxorubicin 100 nM for 72 h, roughly 30-40% inhibitory dose
Measured: 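Luminescent ATP signal taken as viability with or without 100 nM doxorubicin for 72 h; mean of two wells set against non-targeting siRNA and turned into robust z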
Reading the numbers: viability z-score with doxorubicin: higher = more viable cells under doxorubicin; viability z-score without drug: higher = more viable cells with knock-down alone
Call rule: 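a pool counts as active when its viability z-score with doxorubicin is -2 or below and its z-score without drug lies between -2 and 2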
Here is a random part of about 17,000 deposited reagents. 788 of them (4.7%) count as active. 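Calls rest on z-score classes alone; an extra cut-off of viability at most 70% of control was not applied to them.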 Unmarked entries are inactive. Reagents against one gene are numbered here. Not all columns of the deposit are shown.

gene knocked down,reagent no.,combined z-score class,viability z-score with doxorubicin,viability z-score without drug
Setd7,1,high cell count with and without drug,2.02,2.53
Or8d2b,1,no change with or without drug,-0.67,-0.17
Cdc45,1,low cell count with and without drug,-3.82,-2.36
Pon2,1,no change with or without drug,0.79,0.51
Tmcc3,1,no change with or without drug,0.56,0.34
Bpifa2,1,high cell count with and without drug,2.92,3.71
Hsd17b12,1,no change with or without drug,0.45,-0.51
Fam228b,1,no change with or without drug,0.9,0.84
Nptx2,1,no change with or without drug,-0.34,-0.17
Clec4b1,1,no change with or without drug,-1.57,-0.51
Dvl2,1,no change with or without drug,0.79,-0.17
Pheta1,1,no change with or without drug,-0.45,0.17
2310057J18Rik,1,low cell count with doxorubicin only (active),-2.47,0.17
Hnrnpu,1,no change with or without drug,0.34,-0.51
Pals2,1,no change with or without drug,-0.45,-1.18
Pals2,2,no change with or without drug,1.57,1.01
Col4a6,1,no change with or without drug,1.57,1.69
Ghrl,1,low cell count with doxorubicin only (active),-2.25,-0.51
Cbll1,1,low cell count with doxorubicin only (active),-2.02,-0.51
Aldob,1,low cell count with and without drug,-3.04,-2.53
Parp12,1,no change with or without drug,0.67,-0.34
Kcnk10,1,low cell count with doxorubicin only (active),-3.26,0
Ngf,1,no change with or without drug,1.24,-0.51
Gapdhs,1,no change with or without drug,0.56,-0.17
Gkap1,1,no change with or without drug,0.34,0.17
Mb,1,no change with or without drug,-1.12,-0.84
Obox6,1,high cell count with doxorubicin only,2.81,0.84
Slc36a3,1,no change with or without drug,-1.46,-0.17
Kif17,1,no change with or without drug,-0.67,-1.18
Or10al6,1,low cell count with and without drug,-3.6,-3.2
Arv1,1,low cell count with doxorubicin only (active),-2.14,0.67
Stag2,1,no change with or without drug,-1.35,1.18
Fgfr3,1,no change with or without drug,-0.45,0.17
Col19a1,1,no change with or without drug,1.01,0.51
Tbrg1,1,high cell count without drug only,0.67,2.87
Scmh1,1,no change with or without drug,-0.45,-0.84
Ppp1r35,1,no change with or without drug,0.67,0.84
Myef2,1,no change with or without drug,0.67,0.34
Msl1,1,no change with or without drug,-0.45,0.17
Pir,1,no change with or without drug,1.12,0.34
Or5w1b,1,no change with or without drug,-1.12,-0.51
Ppp1r2-ps9,1,no change with or without drug,-1.35,-0.17
Ric3,1,low cell count without drug only,-0.56,-2.19
Leap2,1,no change with or without drug,0.67,0.51
Il1bos,1,no change with or without drug,0.34,1.69
Prl7d1,1,no change with or without drug,0.56,-1.01
Ssr2,1,no change with or without drug,-0.45,-0.34
Bsg,1,no change with or without drug,-0.9,-1.18
Prss33,1,no change with or without drug,0.22,-0.34
Ppef2,1,no change with or without drug,0.56,-0.34
Lag3,1,no change with or without drug,1.12,1.18
Anxa13,1,no change with or without drug,-0.67,0.84
Vps54,1,high cell count with doxorubicin only,2.02,1.85
Snx9,1,no change with or without drug,-0.22,-0.84
Plscr2,1,low cell count with doxorubicin only (active),-2.59,-0.51
Zfp655,1,no change with or without drug,1.01,0.84
Or7g16,1,no change with or without drug,-0.22,-1.18
Gfap,1,no change with or without drug,0.22,-0.51
Gna15,1,no change with or without drug,-0.56,1.01
Jmjd6,1,no change with or without drug,1.46,1.18
F10,1,low cell count with doxorubicin only (active),-2.36,-0.51
Ptprcap,1,no change with or without drug,0.9,-0.34
Or1j15,1,no change with or without drug,-1.69,-1.52

4 consecutive records already listed:
gene knocked down,reagent no.,combined z-score class,viability z-score with doxorubicin,viability z-score without drug
Cbll1,1,low cell count with doxorubicin only (active),-2.02,-0.51
Aldob,1,low cell count with and without drug,-3.04,-2.53
Parp12,1,no change with or without drug,0.67,-0.34
Kcnk10,1,low cell count with doxorubicin only (active),-3.26,0
